Source: paper PMC7346168
These are yes or no findings as the source states them, for the method shown. Binding seen in cells or lysates may run through a third protein. Here binding means that the protein was enriched with, or labelled near, the bait; the list need not be complete. For part of these data: Where a sequence is shown, tags or fusion partners need not be part of it.

T1: 2-CysPRXA C54S (pseudo-reduced variant) (Arabidopsis) (UniProt Q96291)
T1 sequence: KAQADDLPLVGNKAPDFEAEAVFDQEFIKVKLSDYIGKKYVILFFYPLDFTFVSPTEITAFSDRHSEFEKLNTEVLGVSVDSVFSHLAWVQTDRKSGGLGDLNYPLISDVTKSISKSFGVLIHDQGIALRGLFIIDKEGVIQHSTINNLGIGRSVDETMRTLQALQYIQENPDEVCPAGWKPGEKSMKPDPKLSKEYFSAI

T2: 2-cysteine peroxiredoxin A, wild type (2-CysPRXA WT) (Arabidopsis) (UniProt Q96291)
T2 sequence: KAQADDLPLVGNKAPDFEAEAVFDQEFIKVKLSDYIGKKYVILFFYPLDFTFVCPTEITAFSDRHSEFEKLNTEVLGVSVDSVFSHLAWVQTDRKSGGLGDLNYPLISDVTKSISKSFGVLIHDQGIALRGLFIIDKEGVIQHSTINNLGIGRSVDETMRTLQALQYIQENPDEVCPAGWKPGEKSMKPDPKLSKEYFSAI


Biological target: T1, 2-CysPRXA C54S (pseudo-reduced variant) (Arabidopsis)
Test: affinity purification with mass spectrometry; oxidizing: his6-tagged 2-CysPRXA variant (3 mg) on Ni-NTA-agarose pretreated with 1 mM H2O2; leaf extract (50 mg protein) made with 1 mM H2O2; 50 mM HEPES pH 8.0, 1 h, 4 °C; stepwise elution with 1 M NaCl, 10 mM DTT, 250 mM imidazole; hits not found on the column without 2-CysPRX; only the target purified

Binder | binding
MECDP synthase (protein, UniProt Q9CAK8 53-231) AASSAVDVNESVTSEKPTKTLPFRIGHGFDLHRLEPGYPLIIGGIVIPHDRGCEAHSDGDVLLHCVVDAILGALGLPDIGQIFPDSDPKWKGAASSVFIKEAVRLMDEAGYEIGNLDATLILQRPKISPHKETIRSNLSKLLGADPSVVNLKAKTHEKVDSLGENRSIAAHTVILLMKK | binds
HTPA reductase 1 (protein, UniProt O80574 52-347) SMTAMADSGEEAVKSVLPGNGISIMVNGCSGKMGKAVIKAADSAGVNIVPISFGSAGEDGQRVEVCGKEITVHGPTEREKVLSSVFEKHPELIVVDYTIPSAVNDNAELYSKVGVPFVMGTTGGDRNKLYETVEEAKIYAVISPQMGKQVVAFLAAMEIMAEQFPGAFSGYSLDVMESHQASKLDASGTAKAVISCFQELGVSYDMDQIQLIRDPKQQVEMVGVPEEHISGHAFHLYHLTSPDETVSFEFQHNVCGRSIYAEGTVDAVLFLAKKIRLKADQRIYNMIDVLREGNMR | binds
50S ribosomal protein L27 (protein, UniProt Q9FLN4 59-198) AHKKGAGSTKNGRDSPGQRLGVKIYGDQVAKPGAIIVRQRGTKFHAGKNVGIGKDHTIFSLIDGLVKFEKFGPDRKKISVYPREIVPENPNSYRARKRENFRLQREKKKARRENYSYTLPTPELVLASASVDDAEANPEC | binds

Biological target: T2, 2-cysteine peroxiredoxin A, wild type (2-CysPRXA WT) (Arabidopsis)
Test: affinity purification with mass spectrometry; reducing: his6-tagged 2-CysPRXA variant (3 mg) on Ni-NTA-agarose pretreated with 10 mM DTT; leaf extract (50 mg protein) made with 10 mM DTT; 50 mM HEPES pH 8.0, 1 h, 4 °C; stepwise elution with 1 M NaCl, 10 mM DTT, 250 mM imidazole; hits not found on the column without 2-CysPRX; only the target purified

Binder | binding
30S ribosomal protein S17 (protein, UniProt P16180 50-149) MKTMQGRVVCATSDKTVAVEVVRLAPHPKYKRRVRMKKKYQAHDPDNQFKVGDVVRLEKSRPISKTKSFVALPVIARAARKAEAGGDELLGLPLESQQPA | binds
Malate dehydrogenase (AT3G47520) (protein, UniProt Q9SN86 81-403) ASYKVAVLGAAGGIGQPLSLLIKMSPLVSTLHLYDIANVKGVAADLSHCNTPSQVRDFTGPSELADCLKDVNVVVIPAGVPRKPGMTRDDLFNINANIVKTLVEAVAENCPNAFIHIISNPVNSTVPIAAEVLKKKGVYDPKKLFGVTTLDVVRANTFVSQKKNLKLIDVDVPVIGGHAGITILPLLSKTKPSVNFTDEEIQELTVRIQNAGTEVVDAKAGAGSATLSMAYAAARFVESSLRALDGDGDVYECSFVESTLTDLPFFASRVKIGKNGLEAVIESDLQGLTEYEQKALEALKVELKASIDKGVAFANKPAAAAAN | binds
Phosphoglucan phosphatase LSF1 (protein, UniProt F4J117 62-591) AMSSSSTPFKMNLNEYMVTLEKPLGIRFALSADGKIFVHAIKKGSNAEKARIIMVGDTLKKASDSSGGTLVEIKDFGDTKKMLVEKTGSFSLVLERPFSPFPIQYLLHLSDLDLLYNRGRVSFVTWNKNLLSSNLRASSQGSGNSGYAAFSSKFFTPQGWKLLNRQSNSFQSGTKKNILSPPISPLVSVFSEDVPGDGEWGYGNFPLEEYIKALDRSKGELSYNHALGMRYSKITEQIYVGSCIQTEEDVENLSEAGITAILNFQGGTEAQNWGIDSQSINDACQKSEVLMINYPIKDADSFDLRKKLPLCVGLLLRLLKKNHRVFVTCTTGFDRSSACVIAYLHWMTDTSLHAAYSFVTGLHACKPDRPAIAWATWDLIAMVDDGKHDGTPTHSVTFVWNGHEGEEVLLVGDFTGNWKEPIKATHKGGPRFETEVRLTQGKYYYKYIINGDWRHSATSPTERDDRGNTNNIIVVGDVANVRPTIQQPRKDANIIKVIERVLTESERFRLAKAARCIAFSVCPIRLCPKS | binds
Probable protein phosphatase 2C 62 (protein, UniProt Q93V88 1-724) MADHLILSLQAPPFLIFPCSLHRSWRFPGGIRYSVPEFRLSSQLQLANSISPSKSSASSSSPPENSAPEKFDLVSSTQLKDGSHVFRFGDASEIEKYLEAEEKARCVEVETQNAKIAEEASEVSRKQKKLVSSIIETSTEKEETAAPSDLSNVIKIKDRKRVRSPTKKKKETVNVSRSEDKIDAKSASVSNLSSIVSVAEAIPISSTEEEAVVEKEITAKSYNVEPLSSEAMKKVSVNKIGDCETNGYQENRMEVQARPSLSTQQEITPVSTIEIDDNLDVTEKPIEAEENLVAEPTATDDLSPDELLSTSEATHRSVDEIAQKPVIDTSEENLLNTFEAEENPVVEPTATAAVSSDELISTSEATRHSVDEIAQKPIIDTSEKNPMETFVEPEAVHSSVDESTEKLVVVTSDVENDGENVASTTEDEITVRDTITDSGSISNNDDTKVEDLQLPVPETASLEPIKAASGREELVSKAFYLDSGFASLQSPFKALAGREDAYFISHHNWIGIADGVSQWSFEGINKGMYAQELMSNCEKIISNETAKISDPVQVLHRSVNETKSSGSSTALIAHLDNNELHIANIGDSGFMVIRDGTVLQNSSPMFHHFCFPLHITQGCDVLKLAEVYHVNLEEGDVVIAATDGLFDNLYEKEIVSIVCGSLKQSLEPQKIAELVAAKAQEVGRSKTERTPFADAAKEEGYNGHKGGKLDAVTVIISFVKIVST | binds
Pyruvate dehydrogenase E1 subunit beta-3 (protein, UniProt O64688 71-406) ADTAASSTSSKPGHELLLFEALQEGLEEEMDRDPHVCVMGEDVGHYGGSYKVTKGLADKFGDLRVLDTPICENAFTGMGIGAAMTGLRPVIEGMNMGFLLLAFNQISNNCGMLHYTSGGQFTIPVVIRGPGGVGRQLGAEHSQRLESYFQSIPGIQMVACSTPYNAKGLMKAAIRSENPVILFEHVLLYNLKESIPDEEYICNLEEAEMVRPGEHITILTYSRMRYHVMQAAKTLVNKGYDPEVIDIRSLKPFDLYTIGNSVKKTHRVLIVEECMRTGGIGASLTAAINENFHDYLDAPVMCLSSQDVPTPYAGTLEEWTVVQPAQIVTAVEQLCQ | binds
Single-stranded DNA-binding protein WHY1 (protein, UniProt Q9M9S3 48-263) LFSVKSRQTDYFEKQRFGDSSSSPSPAEGLPARFYVGHSIYKGKAALTVDPRAPEFVALDSGAFKLSKDGFLLLQFAPSAGVRQYDWSKKQVFSLSVTEIGTLVSLGPRESCEFFHDPFKGKSDEGKVRKVLKVEPLPDGSGHFFNLSVQNKLVNVDESIYIPITRAEFAVLISAFNFVLPYLIGWHAFANSIKPEETSRVNNASPNYGGDYEWNR | binds
CDPME kinase (protein, UniProt O81014 73-383) LKLFSPCKINVFLRITGKREDGFHDLASLFHVISLGDTIKFSLSPSKSKDRLSTNVQGVPVDGRNLIIKALNLYRKKTGSNRFFWIHLDKKVPTGAGLGGGSSNAATALWAANELNGGLVTENELQDWSSEIGSDIPFFFSHGAAYCTGRGEIVQDLPPPFPLDLPMVLIKPREACSTAEVYKRLRLDQTSNINPLTLLENVTSNGVSQSICVNDLEPPAFSVLPSLKRLKQRIIASGRGEYDAVFMSGSGSTIIGIGSPDPPQFIYDDEEYKNVFLSEANFMTREANEWYKEPASANATTSSAESRMDFQ | binds
50S ribosomal protein L29 (protein, UniProt Q9FJP3 61-173) SKREAELKEIRSKTTEQLQEEVVDLKGELFMLRLQKSARNEFKSSDFRRMKKQVARMLTVKREREIKEGIKKRLSRKLDRQWKKSIVPRPPPSLKKLQEEEAAEEAAEAAKSA | binds
PLAT domain-containing protein 1 (protein, UniProt O65660 15-181) ATVSAVAFAEDDPDCVYTFYLRTGSIWKAGTDSIISARIYDKDGDYIGIKNLQAWAGLMGPDYNYFERGNLDIFSGRAPCLPSPICALNLTSDGSGDHHGWYVNYVEITTAGVHAQCSTQDFEIEQWLATDTSPYELTAVRNNCPVKLRDSVSRVGSEIRKKLSWVV | binds
Sulfiredoxin (protein, UniProt Q8GY89 23-125) NGSPPVIGGSSGGVGPMIVELPLEKIRRPLMRTRSNDQNKVKELMDSIRQIGLQVPIDVIEVDGTYYGFSGCHRYEAHQKLGLPTIRCKIRKGTKETLRHHLR | binds
Transketolase-1 (protein, UniProt Q8RWV0 67-741) AAVETVEPTTDSSIVDKSVNSIRFLAIDAVEKAKSGHPGLPMGCAPMAHILYDEVMRYNPKNPYWFNRDRFVLSAGHGCMLLYALLHLAGYDSVQEEDLKQFRQWGSKTPGHPENFETPGIEVTTGPLGQGIANAVGLALAEKHLAARFNKPDAEVVDHYTYAILGDGCQMEGISNEACSLAGHWGLGKLIAFYDDNHISIDGDTEIAFTENVDQRFEALGWHVIWVKNGNTGYDEIRAAIKEAKTVTDKPTLIKVTTTIGYGSPNKANSYSVHGAALGEKEVEATRNNLGWPYEPFQVPDDVKSHWSRHTPEGATLESDWSAKFAAYEKKYPEEASELKSIITGELPAGWEKALPTYTPESPGDATRNLSQQCLNALAKVVPGFLGGSADLASSNMTLLKAFGDFQKATPEERNLRFGVREHGMGAICNGIALHSPGLIPYCATFFVFTDYMRGAMRISALSEAGVIYVMTHDSIGLGEDGPTHQPIEHIASFRAMPNTLMFRPADGNETAGAYKIAVTKRKTPSILALSRQKLPHLPGTSIEGVEKGGYTISDDSSGNKPDVILIGTGSELEIAAQAAEVLRKDGKTVRVVSFVCWELFDEQSDEYKESVLPSDVSARVSIEAASTFGWGKIVGGKGKSIGINSFGASAPAPLLYKEFGITVEAVVDAAKSFF | binds
Delta-aminolevulinic acid dehydratase 1 (protein, UniProt Q9SFH9 53-430) ASESGNGHAKKLGMSDAECEAAVAAGNVPEAPPVPPKPAAPVGTPIIKPLNLSRRPRRNRASPVTRAAFQETDISPANFVYPLFIHEGEEDTPIGAMPGCYRLGWRHGLVQEVAKARAVGVNSIVLFPKVPEALKNSTGDEAYNDNGLVPRTIRLLKDKYPDLIIYTDVALDPYSSDGHDGIVREDGVIMNDETVHQLCKQAVSQARAGADVVSPSDMMDGRVGAIRSALDAEGFQNVSIMSYTAKYASSFYGPFREALDSNPRFGDKKTYQMNPANYREALIEAREDEAEGADILLVKPGLPYLDIIRLLRDKSPLPIAAYQVSGEYSMIKAGGVLKMIDEEKVMMESLMCLRRAGADIILTYFALQAATCLCGEKR | binds
